Some peptides are written in HELM: one residue between dots, names in brackets for other building blocks, links after the first $. Non-standard residues stand in square brackets, D forms with d. *: point of attachment. Biotin = O=C1N[C@H]2[C@H](CS[C@H]2CCCCC(=O)*)N1; Dap = NC[C@H](N)C(=O)O

Isolated yield, crude yield and step yield data for 22 substances are collected here from EP3016671B1 (Universitat de Barcelona, priority 2013, dated 2015).

A short description of this series: general procedure: Fmoc solid-phase peptide synthesis; Rink amide ChemMatrix resin; TBTU (coupling method 1); PyBOP/HOAt/DIEA for cargo and linker couplings. The following applies: for isolated yield / crude yield: whole synthesis; for crude yield: synthesis.
[1] abbreviates: synthesis and purification, several disulfide bridges, sequence written open.
[2] abbreviates: after synthesis and purification.

Take PEPTIDE1{K.A.P.E.T.A.L.[am]}$$$$V2.0: the isolated yield (synthesis and purification) amounted to 30%.

Substance “H-CKAPETALC-NH2 (cysteine pairing not given here)” came in with an isolated yield (synthesis and purification, one disulfide bridge, sequence written open) of 10%.

On to “H-CNCKAPETALCAAACHGLPFFD-NH2 (cysteine pairing not given here)”, for which, for the setting “synthesis and purification”, the isolated yield was 7%.

“PEPTIDE1{[Dap].K.A.P.E.T.A.L.D.[am]}$PEPTIDE1,PEPTIDE1,1:R3-9:R3$$$V2.0”: the crude yield was 40%.

The substance “H-C≡C(CH2)rC(C=O)-Cys-Asn-Cys-Lys-Ala-Pro-Glu-Thr-Ala-Leu-Cys-Ala-Ala-Ala-Cys-His-NH2” returned an isolated yield (synthesis and purification) of 4%.

“PEPTIDE1{[Dopa].C.N.C.K.A.P.E.T.A.L.C.A.A.A.C.H.[am]}$PEPTIDE1,PEPTIDE1,2:R3-12:R3|PEPTIDE1,PEPTIDE1,4:R3-16:R3$$$V2.0” registered an isolated yield (synthesis and purification) of 4%.

Substance “H-LPFFDGCKAPETALC-NH2 (cysteine pairing not given here)” yielded a crude yield of 30%.

For “H-Cys-Lys-Ala-Pro-Glu-Thr-Ala-Leu-Cys-NH2 with a lanthionine bridge linking the two terminal residues of the peptide (CKAPETALC; printed: Cys-Lys-Ala-Pro-Glu-Thr-Ala-Leu-Cys-)”, the step yield (late stage modification step, transformation from Ap5ba after purification) worked out at 18%.

“5(6)-Carboxyfluorescein-Gly-Cys-Asn-Cys-Lys-Ala-Pro-Glu-Thr-Ala-Leu-Cys-Ala-Ala-Ala-Cys-His-NH2” returned an isolated yield under setting [1] of 5%.

Under setting [2], “maleimide-(CH2)6-C(=O)-Dap-Lys-Ala-Pro-Glu-Thr-Ala-Leu-Asp-NH2” yielded an isolated yield of 10%.

As to “H-C≡C(CH2)rC(C=O)-Cys-Lys-Ala-Pro-Glu-Thr-Ala-Leu-Cys-NH2”, the crude yield is given as 35%.

“PEPTIDE1{L.P.F.F.D.G.C.N.C.K.A.P.E.T.A.L.C.A.A.A.C.H.[am]}$PEPTIDE1,PEPTIDE1,7:R3-17:R3|PEPTIDE1,PEPTIDE1,9:R3-21:R3$$$V2.0” had an isolated yield (synthesis and purification) of 3%.

“5(6)-Carboxyfluorescein-Cys-Asn-Cys-Lys-Ala-Pro-Glu-Thr-Ala-Leu-Cys-Ala-Ala-Ala-Cys-His-NH2 (CNCKAPETALCAAACH; 5(6)-carboxyfluorescein; C-terminal amide; printed: Cys-Asn-Cys-Lys-Ala-Pro-Glu-Thr-Ala-Leu-Cys-Ala-Ala-Ala-Cys-His-)” displayed an isolated yield under setting [1] of 3%.

On to “5(6)-Carboxyfluorescein-Gly-Dap-Lys-Ala-Pro-Glu-Thr-Ala-Leu-Cys-Asp-NH2”, for which the isolated yield (synthesis and purification, side-chain lactam ring, sequence written open) is listed as 7%.

“sulforhodamine b-Gly-Cys-Asn-Cys-Lys-Ala-Pro-Glu-Thr-Ala-Leu-Cys-Ala-Ala-Ala-Cys-His-NH2”: the isolated yield under setting [1] came out at 1%.

The substance H-C[Dap]KAPETALD-NH2 displayed an isolated yield under setting [2] of 9%.

“PEPTIDE1{[Dopa].C.K.A.P.E.T.A.L.C.[am]}$PEPTIDE1,PEPTIDE1,2:R3-10:R3$$$V2.0” came in with a crude yield of 20%.

In turn, “PEPTIDE1{[Dap].K.A.P.E.T.A.L.D.K.Q.I.E.I.K.K.F.K.[am]}$PEPTIDE1,PEPTIDE1,1:R3-9:R3$$$V2.0” displayed an isolated yield (synthesis and purification) of 6%.

The substance “PEPTIDE1{[Dopa].[Dap].K.A.P.E.T.A.L.D.[am]}$PEPTIDE1,PEPTIDE1,2:R3-10:R3$$$V2.0” displayed an isolated yield (synthesis and purification) of 8%.

With “Biotin-CNCKAPETALCAAACH-NH2 (cysteine pairing not given here)”, where the note is “synthesis and purification”, the isolated yield was 5%.

Regarding “PEPTIDE1{C.N.C.K.A.P.E.T.A.L.C.A.A.A.C.H.[am]}$PEPTIDE1,PEPTIDE1,1:R3-11:R3|PEPTIDE1,PEPTIDE1,3:R3-15:R3$$$V2.0”, the isolated yield (synthesis and purification) turned out to be 5%.

In turn, “sulforhodamine b-Gly-Cys-Lys-Ala-Pro-Glu-Thr-Ala-Leu-Cys-NH2” displayed a crude yield (one disulfide bridge, sequence written open) of 4%.
